No constants are given. Whether binding was seen depends on the method and setting. Binding seen in cells or lysates may run through a third protein. Some results given as binding are weak or reduced against the parent protein; the word gives no strength. Sequences can lack the tags named with a protein.
Molecular target: T1, HA-tagged mouse iRhom2 (wild type) (mouse) (UniProt Q80WQ6)
T1 sequence: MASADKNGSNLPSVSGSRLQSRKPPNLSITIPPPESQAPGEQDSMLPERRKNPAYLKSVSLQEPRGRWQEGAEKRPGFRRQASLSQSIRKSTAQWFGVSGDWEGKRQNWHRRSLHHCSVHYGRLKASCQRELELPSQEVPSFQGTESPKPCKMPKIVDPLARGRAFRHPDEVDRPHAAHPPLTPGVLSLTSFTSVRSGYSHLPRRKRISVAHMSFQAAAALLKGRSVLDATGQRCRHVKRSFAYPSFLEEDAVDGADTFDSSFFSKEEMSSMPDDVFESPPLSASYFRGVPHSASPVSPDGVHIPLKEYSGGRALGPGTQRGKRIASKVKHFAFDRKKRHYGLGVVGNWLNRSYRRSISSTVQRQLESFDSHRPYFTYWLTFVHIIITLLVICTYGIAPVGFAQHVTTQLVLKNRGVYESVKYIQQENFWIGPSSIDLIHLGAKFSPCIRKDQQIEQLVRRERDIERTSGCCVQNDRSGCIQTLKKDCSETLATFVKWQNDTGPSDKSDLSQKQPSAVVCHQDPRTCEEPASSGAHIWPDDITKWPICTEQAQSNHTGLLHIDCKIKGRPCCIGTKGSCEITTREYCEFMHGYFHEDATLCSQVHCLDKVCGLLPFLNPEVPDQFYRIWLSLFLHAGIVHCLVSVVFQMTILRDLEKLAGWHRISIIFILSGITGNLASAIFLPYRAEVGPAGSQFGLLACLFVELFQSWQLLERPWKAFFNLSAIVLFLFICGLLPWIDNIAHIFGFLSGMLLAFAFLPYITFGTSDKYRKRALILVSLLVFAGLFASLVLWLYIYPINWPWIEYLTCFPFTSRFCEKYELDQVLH
Experiment: co-IP; α-HA immunoprecipitates from HEK293ET cells expressing iRhom2-HA constructs, with or without PMA (30 min); TACE detected by blot, densitometry

Sequences of proteins named here, by UniProt entry; tags and fusion partners are left off. Residues count along the entry.
UniProt P78536, residues 215-824: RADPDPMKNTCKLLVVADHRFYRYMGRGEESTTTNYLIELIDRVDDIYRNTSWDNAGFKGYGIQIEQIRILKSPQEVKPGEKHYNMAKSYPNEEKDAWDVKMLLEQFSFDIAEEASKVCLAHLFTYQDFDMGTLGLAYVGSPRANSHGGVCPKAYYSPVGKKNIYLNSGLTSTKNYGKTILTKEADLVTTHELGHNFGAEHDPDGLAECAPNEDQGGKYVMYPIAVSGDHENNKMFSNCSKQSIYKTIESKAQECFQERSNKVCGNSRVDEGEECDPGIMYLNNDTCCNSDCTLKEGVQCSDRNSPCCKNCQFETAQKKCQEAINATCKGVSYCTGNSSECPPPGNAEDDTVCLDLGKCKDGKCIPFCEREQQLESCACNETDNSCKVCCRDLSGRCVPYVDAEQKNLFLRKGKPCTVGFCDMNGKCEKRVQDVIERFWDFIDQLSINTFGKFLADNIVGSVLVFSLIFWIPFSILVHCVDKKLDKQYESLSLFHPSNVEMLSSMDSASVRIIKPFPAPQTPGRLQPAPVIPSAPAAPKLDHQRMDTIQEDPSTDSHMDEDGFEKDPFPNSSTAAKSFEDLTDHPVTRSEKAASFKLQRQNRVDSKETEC

TACE (TNF-α-converting enzyme), mature form, found in α-HA immunoprecipitates from HEK293ET cells (from UniProt P78536 215-824)
binding: binds
